Experimental data published in paper PMC6460569.
Results are given in words; binding and its absence hold for the method and conditions named. In cells and extracts the contact can be indirect. Some results given as binding are weak or reduced against the parent protein; the word gives no strength.

By UniProt entry, the sequences of proteins in these tests, tags left out.
UniProt P25911: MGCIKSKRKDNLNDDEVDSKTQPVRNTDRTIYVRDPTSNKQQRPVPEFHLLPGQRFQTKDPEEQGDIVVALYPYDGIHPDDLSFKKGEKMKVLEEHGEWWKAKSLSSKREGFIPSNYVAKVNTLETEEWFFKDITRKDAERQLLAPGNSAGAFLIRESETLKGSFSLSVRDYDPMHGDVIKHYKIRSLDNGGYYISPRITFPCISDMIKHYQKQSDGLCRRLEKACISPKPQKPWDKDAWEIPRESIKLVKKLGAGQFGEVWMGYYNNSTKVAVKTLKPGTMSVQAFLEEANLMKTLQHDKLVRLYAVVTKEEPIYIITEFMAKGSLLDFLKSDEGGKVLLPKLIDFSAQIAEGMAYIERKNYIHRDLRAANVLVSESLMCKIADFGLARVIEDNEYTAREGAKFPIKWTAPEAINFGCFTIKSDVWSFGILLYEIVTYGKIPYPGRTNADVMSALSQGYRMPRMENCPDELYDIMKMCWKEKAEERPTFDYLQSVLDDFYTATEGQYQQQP

T1: FcεRIβ (mouse (endogenous in BALB/C mouse tissue)) (UniProt P20490)
T1 sequence: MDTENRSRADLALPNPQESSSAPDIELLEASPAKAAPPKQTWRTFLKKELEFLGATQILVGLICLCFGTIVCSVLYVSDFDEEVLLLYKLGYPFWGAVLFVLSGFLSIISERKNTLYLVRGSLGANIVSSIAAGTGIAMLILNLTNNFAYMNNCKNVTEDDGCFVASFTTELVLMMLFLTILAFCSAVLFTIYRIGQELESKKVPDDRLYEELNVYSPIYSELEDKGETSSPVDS


Assays:
[1] = target: T1, FcεRIβ (mouse (endogenous in BALB/C mouse tissue)); assay: co-IP; immunoprecipitation of tumor tissue lysates (B16F1 tumors in BALB/C mice after passive systemic anaphylaxis); with or without p62 siRNA or miR-135-5p mimic
[2] = target: T1, FcεRIβ (mouse (endogenous in BALB/C mouse tissue)); assay: co-IP; immunoprecipitation of lung tumor tissue lysates (B16F1 lung metastasis in BALB/C mice after passive systemic anaphylaxis); with or without p62 siRNA or miR-135-5p mimic
[3] = target: T1, FcεRIβ (mouse (endogenous in BALB/C mouse tissue)); assay: co-IP; immunoprecipitation of ear tissue lysates of BALB/C mice, passive cutaneous anaphylaxis (IgE, then DNP-HSA); with or without p62 siRNA, miR-135-5p mimic or GW4869
[4] = target: T1, FcεRIβ (mouse (endogenous in BALB/C mouse tissue)); assay: co-IP; immunoprecipitation of tissue lysates of BALB/C mice, passive systemic anaphylaxis (IgE, then DNP-HSA); with or without p62 siRNA or GW4869; tissue not named
[5] = target: T1, FcεRIβ (mouse (endogenous in BALB/C mouse tissue)); assay: as above; remark: listed apart in the source

binding [1] | binding [2] | binding [3] | binding [4] | binding [5] | Molecule
binds | binds | binds | binds | – | Lyn (from UniProt P25911 1-512) (enzyme)
– | binds | binds | – | binds | SOCS1 (protein, UniProt O35716 1-212) MVARNQVAADNAISPAAEPRRRSEPSSSSSSSSPAAPVRPRPCPAVPAPAPGDTHFRTFRSHSDYRRITRTSALLDACGFYWGPLSVHGAHERLRAEPVGTFLVRDSRQRNCFFALSVKMASGPTSIRVHFQAGRFHLDGSRETFDCLFELLEHYVAAPRRMLGAPLRQRRVRPLQELCRQRIVAAVGRENLARIPLNPVLRDYLSSFPFQI
– | – | binds | – | binds | Transglutaminase II (TGaseII) (enzyme, UniProt P21981 1-686) MAEELLLERCDLEIQANGRDHHTADLCQEKLVLRRGQRFRLTLYFEGRGYEASVDSLTFGAVTGPDPSEEAGTKARFSLSDNVEEGSWSASVLDQQDNVLSLQLCTPANAPIGLYRLSLEASTGYQGSSFVLGHFILLYNAWCPADDVYLDSEEERREYVLTQQGFIYQGSVKFIKSVPWNFGQFEDGILDTCLMLLDMNPKFLKNRSRDCSRRSSPIYVGRVVSAMVNCNDDQGVLLGRWDNNYGDGISPMAWIGSVDILRRWKEHGCQQVKYGQCWVFAAVACTVLRCLGIPTRVVTNYNSAHDQNSNLLIEYFRNEFGELESNKSEMIWNFHCWVESWMTRPDLQPGYEGWQAIDPTPQEKSEGTYCCGPVSVRAIKEGDLSTKYDAPFVFAEVNADVVDWIRQEDGSVLKSINRSLVVGQKISTKSVGRDDREDITHTYKYPEGSPEEREVFTKANHLNKLAEKEETGVAMRIRVGDSMSMGNDFDVFAHIGNDTSETRECRLLLCARTVSYNGVLGPECGTEDINLTLDPYSENSIPLRILYEKYSGCLTESNLIKVRGLLIEPAANSYLLAERDLYLENPEIKIRVLGEPKQNRKLVAEVSLKNPLSDPLYDCIFTVEGAGLTKEQKSVEVSDPVPAGDLVKARVDLFPTDIGLHKLVVNFQCDKLKSVKGYRNVIIGPA
